The other results are listed elsewhere or left out. These are raw signals, not scaled to a control.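 In the initial screen, polymyxin B was used at a concentration that permeabilizes Salmonella's outer membrane but not its inner membrane. Maximum growth was set by DMSO wells with or without polymyxin B. Since plates varied, data were ranked per plate, and compounds giving the lowest OD600 advanced as hits.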
Tested on: Salmonella enterica serovar Typhimurium SL1344
Assay: bacterial growth OD600 after 18 h with compound and polymyxin B; higher = more bacterial growth (less inhibition)
Details: 50 µM, Mueller-Hinton broth

SMILES	bacterial growth OD600 (polymyxin B 1 µg/mL)	bacterial growth OD600 (polymyxin B 0.75 µg/mL)
O=C(CC(c1ccccc1)c1ccccc1Cl)N1CCC(CO)CC1 (stereo not given)	0.69	
CCn1ccnc1CN1CCCC(CNC(=O)c2cccc(C(F)(F)F)c2)C1 (stereo not given)		0.831
COC(=O)c1cc(CNC(=O)Cc2c(F)cccc2Cl)cc(NC(=O)c2ccco2)c1		0.813
COc1ccc(S(=O)(=O)N2CCCC(CNC(=O)c3ccco3)C2)c(OC)c1 (stereo not given)		0.884
CC(Oc1ccccc1)C(=O)N1CCC(CCC(=O)Nc2ccccc2)CC1 (stereo not given)	0.926	
COc1ccc(C(=O)N(C)CC2CCCN(CCc3ccccc3OC)C2)cc1 (stereo not given)	0.725	
CN(C)c1ncccc1CNC(=O)CN1CCOc2ccccc2C1	0.858	
Cn1nccc1C(=O)N1CCCC1C(=O)Nc1cccc(-n2cccn2)c1 (stereo not given)	0.947	
CC(c1ccc2c(c1)OCCO2)N(C)C(=O)c1cc(COc2ccccc2)[nH]n1 (stereo not given)	0.652	
CSc1cccc(NC(=O)N2CCC(CCC(=O)Nc3ccccc3)CC2)c1	0.905	

2 entries from above, in markdown:

| SMILES | bacterial growth OD600 (polymyxin B 1 µg/mL) | bacterial growth OD600 (polymyxin B 0.75 µg/mL) |
| --- | --- | --- |
| O=C(CC(c1ccccc1)c1ccccc1Cl)N1CCC(CO)CC1 (stereo not given) | 0.69 |  |
| CSc1cccc(NC(=O)N2CCC(CCC(=O)Nc3ccccc3)CC2)c1 | 0.905 |  |

— the supplement of paper PMC12889115
